From PubChem BioAssay AID493014 (National Center for Advancing Translational Sciences (NCATS), 2011)
Hit rate of the full screen: of about 340,000 compounds, about 170 (0.05%) were called active. Inconclusive means that the source gave no clear call. Such entries were picked first, then a sample of the others. The call rests on the fitted dose curve; in most records, active means well fitted inhibition curve with a large enough effect in the signal ratio, with a control signal flat (not every such curve was filed as active); inconclusive means small, poorly fitted or top-dose-only effect, or effect the other way, or a change in a side signal; inactive means flat fitted curve, though single readings scatter; the % refers to the signal ratio. Potencies of inconclusive entries are doubtful fits and often do not repeat.

assay: qHTS Assay to Find Inhibitors of Chronic Active B-Cell Receptor Signaling; settings: ABC-DLBCL IkBa-CBG/CBR reporter, luminescence ratio (green luciferase fused to IkBa over red control in TMD8 lymphoma cells), 4 h; activity change, negative = inhibition: at 46.1 µM (top of the series);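 on activity change, negative = inhibition: plate controls were basal doxycycline-induced cells for no effect and cells given 10 µM MG132 for full effect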
Outline: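 Compounds up to 46 uM were incubated four hours with TMD8 cells whose green CBG68 luciferase is fused to IkappaBalpha; red CBR luminescence normalised the signal, and concentration-effect curves were fitted to fusion, red and ratio data.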
Potency means the concentration at half of the fitted maximal effect.

Compound | Potency | activity change, negative = inhibition
Fc1ccc(-n2cc(CNCCc3ccncc3)c(-c3ccccc3Cl)n2)cc1 | inconclusive: 5.62 µM [falling, single point] | 
CCN(CC)CCOC(=O)C12CC3CC(CC(C3)C1)C2 |  | inconclusive: -0.289%
O=C(CN(C(=O)CCC(=O)Nc1nccs1)c1cccc(C(F)(F)F)c1)NCC1CCCO1 (stereo not given) |  | inactive: -10%
COCCN(C(=O)COC(=O)c1ccc(C)s1)c1c(N)n(Cc2ccccc2)c(=O)[nH]c1=O |  | inconclusive: 0.334%
O=C(/C=C/c1ccc2c(c1)S(=O)(=O)N(Cc1ccccc1)[C@H]2CC(=O)N1CCOCC1)N1CCOCC1 |  | inconclusive: -0.288%
C=CCn1c(SCC(=O)c2[nH]c(C)c(C(=O)OCC)c2C)nc2scc(-c3ccccc3)c2c1=O |  | inactive: -0.427%
COc1cccc(CNC(=O)CCS(=O)(=O)c2cc3c(cc2C)NC(=O)CO3)c1 | inconclusive: 8.91 µM [falling, partial curve, poor fit] | 
O=C1CCC/C(=N/NC(=O)c2cc(NS(=O)(=O)c3cccs3)cc(NS(=O)(=O)c3cccs3)c2)C1 |  | inactive: -4.03%
COc1ccc(NC(=O)c2cccc3ccccc23)cc1 |  | inactive: -9.42%
Cc1cc(=O)[nH]c(SCc2cccc3cccnc23)n1 |  | inactive: -0.168%
Oc1ccc(/C=N/NC(=S)Nc2cccnc2)cc1O | inconclusive: 23.1 µM [falling, partial curve, poor fit] | 
CNc1ccccc1C(=O)OCC(=O)Nc1ccc2c(c1)OCO2 | inconclusive: 16.4 µM [falling, partial curve] | 
CCOC(=O)CNC(=O)CN1CCCN(S(=O)(=O)c2ccc(Br)s2)CC1 |  | inconclusive: 6.16%
CS(=O)(=O)N1CCN(c2ccc(C(=O)NC34CC5CC(CC(C5)C3)C4)cc2[N+](=O)[O-])CC1 |  | inactive: 2.39%
Nc1nc(N2CCCCC2)nc(N2CCCCC2)n1 |  | inconclusive: -0.665%
CNC(=O)c1cc(S(=O)(=O)N(C)C)ccc1Cl |  | inconclusive: 16.1%
CCOC(=O)c1[nH]c(C)c(C(=O)Nc2ccc3c(c2)CCC3)c1C |  | inconclusive: 1.95%
Cc1cc2cc3c(N)[nH]nc3nc2cc1C | inconclusive: 11.2 µM [falling, partial curve] | 
O=C(N/N=C1\CCCc2ccccc21)C(O)c1ccccc1 (stereo not given) |  | inconclusive: -13.2%
CC(C)NC(=O)Nc1cccc(Cl)c1 |  | inactive: 0.279%

Nothing new here: entries from further up.
Compound | Potency | activity change, negative = inhibition
O=C(CN(C(=O)CCC(=O)Nc1nccs1)c1cccc(C(F)(F)F)c1)NCC1CCCO1 (stereo not given) |  | inactive: -10%
COCCN(C(=O)COC(=O)c1ccc(C)s1)c1c(N)n(Cc2ccccc2)c(=O)[nH]c1=O |  | inconclusive: 0.334%
O=C(/C=C/c1ccc2c(c1)S(=O)(=O)N(Cc1ccccc1)[C@H]2CC(=O)N1CCOCC1)N1CCOCC1 |  | inconclusive: -0.288%

Following part

Compound | Potency | activity change, negative = inhibition
CC1CCC2(CC1)NC(=O)N(CC(=O)N1CCN(c3ccccc3)CC1)C2=O (stereo not given) |  | inactive: 3.37%
O=C(O)c1cccc(Nc2c([N+](=O)[O-])c(=O)oc3ccccc23)c1 |  | inconclusive: -14.6%
c1cc(SC2CCCCC2)cc(-c2nc3cnccn3c2NC2CCCCC2)c1 |  | inconclusive: 2.37%
COc1ccccc1C(=O)COC(=O)C(NC(=O)Cc1ccccc1)C(C)C (stereo not given) |  | inactive: 0.448%
COC(=O)c1c(C)[nH]c(C(=O)CN2C(=O)C3CC=CCC3C2=O)c1C (stereo not given) |  | inconclusive: 0.077%
CCN(CC)CC(O)Cn1c(C)c(-c2ccccc2)c2cc([N+](=O)[O-])ccc21 (stereo not given) |  | inactive: -1.92%
Cc1cccc(Cl)c1OCCCn1ccnc1 |  | inconclusive: 0.847%
O=C(NNC(=O)c1ccc[nH]1)c1cccc(C(F)(F)F)c1 |  | inconclusive: -0.595%
CCOc1cccc(C2C(C#N)=C(N)Oc3cc(C)[nH]c(=O)c32)c1OCC (stereo not given) |  | inconclusive: 8.12%
CC1(C)Cc2c(c(N3CCOCC3)nc3sc4c(=O)[nH]cnc4c23)CS1 |  | inconclusive: -11.6%
COc1cccc(/C=N/NC(=O)c2c(C)nc3ccc(Br)cn23)c1 |  | inconclusive: -19.5%
CC(=O)N1CCN(C(=S)c2ccc(-c3ccc(Cl)cc3)o2)CC1 |  | inconclusive: -3.57%
CCc1nc(SCC(=O)c2ccccc2)c2c(=O)n(C)c(=O)n(C)c2n1 |  | inconclusive: -3.09%
O=C(N/N=C/c1cc(Cl)ccc1O)c1ccccc1Br | inconclusive: 22.4 µM [falling, partial curve] | 
Cn1c(=O)c2c(nc(NCc3ccc4c(c3)OCO4)n2C)n(C)c1=O |  | inconclusive: 20.5%
CC[C@@H](C(=O)[C@@H](C)[C@@H](O)[C@H](C)CCc1ccc(C)c(O)c1C(=O)O)[C@H]1O[C@](CC)([C@H]2CC[C@](O)(CC)[C@H](C)O2)C[C@@H]1C | inconclusive: 5.01 µM [rising, partial curve, poor fit] | 
CSc1ccccc1NC(=S)N/N=C/c1cccn1Cc1ccc(F)cc1 |  | inactive: 6.15%
Cc1ccc(C(=O)COC(=O)c2ccc(O)cc2)cc1 | inconclusive: 28.2 µM [falling, single point] | 
O=C(N/N=C/c1ccc2c(c1)OCO2)c1cccc(NC(=O)c2ccccc2Cl)c1 | inconclusive: 20 µM [falling, partial curve, poor fit] | 
COC(=O)c1ccc(C(=O)NC(=S)Nc2nc3c(s2)CC(C)CC3)cc1 (stereo not given) | inconclusive: 3.26 µM [falling, full curve] | 
